Assay results published in publication PMC9637093.
Results are given in words; binding and its absence hold for the method and conditions named. Binding seen in cells or lysates may run through a third protein.

Amino acid sequences for entries named in this document (tags omitted).
UniProt O00425: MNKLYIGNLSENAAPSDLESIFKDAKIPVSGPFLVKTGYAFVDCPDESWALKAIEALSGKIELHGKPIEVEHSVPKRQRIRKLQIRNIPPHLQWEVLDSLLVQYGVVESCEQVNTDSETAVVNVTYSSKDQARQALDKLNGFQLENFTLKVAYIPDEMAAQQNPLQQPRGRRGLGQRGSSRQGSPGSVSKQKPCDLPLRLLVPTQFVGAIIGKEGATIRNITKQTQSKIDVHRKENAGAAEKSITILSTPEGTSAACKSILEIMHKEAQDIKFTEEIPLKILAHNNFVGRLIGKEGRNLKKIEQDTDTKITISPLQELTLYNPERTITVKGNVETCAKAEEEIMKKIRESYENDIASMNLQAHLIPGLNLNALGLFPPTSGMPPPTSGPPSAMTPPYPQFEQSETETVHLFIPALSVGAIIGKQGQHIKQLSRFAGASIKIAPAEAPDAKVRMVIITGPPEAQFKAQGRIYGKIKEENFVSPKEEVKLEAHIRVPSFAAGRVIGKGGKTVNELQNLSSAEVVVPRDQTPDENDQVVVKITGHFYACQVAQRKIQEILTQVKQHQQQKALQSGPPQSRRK

Molecular target: IGF2BP3 (not stated (human or mouse cDNA cloned)) (UniProt O00425)
Experiment: co-IP; two-step IP: lysate of 293 T cells transfected with a FLAG-tagged RNA binding factor, biotin-conjugated RNA oligonucleotides added; FLAG-M2 beads 2 h at 4 °C, elution with 3xFLAG peptide, then streptavidin beads 1 h at 4 °C; washes in buffer D; western blotting

B1: KHDRBS3 (protein, UniProt O75525 1-346)
chain: MEEKYLPELMAEKDSLDPSFTHALRLVNQEIEKFQKGEGKDEEKYIDVVINKNMKLGQKVLIPVKQFPKFNFVGKLLGPRGNSLKRLQEETLTKMSILGKGSMRDKAKEEELRKSGEAKYFHLNDDLHVLIEVFAPPAEAYARMGHALEEIKKFLIPDYNDEIRQAQLQELTYLNGGSENADVPVVRGKPTLRTRGVPAPAITRGRGGVTARPVGVVVPRGTPTPRGVLSTRGPVSRGRGLLTPRARGVPPTGYRPPPPPPTQETYGEYDYDDGYGTAYDEQSYDSYDNSYSTPAQSGADYYDYGHGLSEETYDSYGQEEWTNSRHKAPSARTAKGVYRDQPYGRY
In the case of B1, the binding is reported as “no binding”.
